Source: US20050106100A1 (priority 2003, published 2005)
Some peptides are written in HELM: one residue between dots, names in brackets for other building blocks, links after the first $. *1 amine or outer side, *2 acyl side, *3 side chain or, on linkers, in order; H or OH if unused. [ ]: non-standard residue; d: D form. The star is where a group is joined. X1 = O=C(c1ccc(N/N=C/c2ccccc2S(=O)(=O)O)nc1)*; Hexamethylenediamine = C(CCCN[*:2])CCN[*:1]; hPhe = N[C@@H](CCc1ccccc1)C(=O)O; Orn = NCCC[C@H](N)C(=O)O; Ahx = NCCCCCC(=O)O

Assay: general procedure: Fmoc solid-phase peptide synthesis; Fmoc-Glu(Ot-Bu)-Wang resin (0.9 mmol/g); 1,6-diaminohexane trityl resin ([…]); HBTU/HOBt/diisopropylethylamine
Conditions: for purity (crude or final not stated) / final HPLC purity: HPLC
[1] = late stage modification step, TFA salt

## Ac-Oic-LG˜LL-Ahxh-H
Whole synthesis
  purity (crude or final not stated): 90%

## Ac-P-Cit-Abu˜LTA-Ahxh-Hynic
  final HPLC purity: 96%

## Ac-Tic-Cit-G˜Hphe-SA-Ahxh-Hynic
  final HPLC purity: 89%

## Ac-P-DArg-R˜LTA-Ahxh-Hynic
  final HPLC purity: 98%

## Ac-P-Cit-G˜S(OBn)-LA-Ahxh-H
Whole synthesis
  purity (crude or final not stated): 100%

## PEPTIDE1{[ac].[Csa].P.L.G.[Hphe].Y.L.[Ambh].[HynCz]}$$$$V2.0
Conjugation step
  final HPLC purity: 100% purity by HPLC
Conjugation step, corrected for the protected conjugate
  conjugation yield: 64.5% corrected for the protected conjugate

## Ac-PLG˜L-Pya-L-Ahxh-H
Whole synthesis
  purity (crude or final not stated): 100%

## Ac-PRR˜Cha-TA-Ambh-Hynic
  final HPLC purity: 100%

## Ac-DArg-P-Aib-G˜Hphe-LA-Ahxh-Hynic
  final HPLC purity: 98%

## NLys-NLys-PLG˜Hphe-YL-Ahxh-Hynic
  final HPLC purity: 100%

## Ac-P-Cit-G-Hphe-LA-Hynic
  final HPLC purity: 96%

## Suc-PLG˜LYT-Ahxh-Hynic
  final HPLC purity: 100%

## PEPTIDE1{[ac].[NGlu].P.L.G.[Hphe].Y.L.[Ambh].[HynCz]}$$$$V2.0
Late stage modification step
  step yield: 57%
  final HPLC purity: HPLC purity, 100%

## Ac-P-Cit-G˜Igl-LA-Ahxh-Hynic
  final HPLC purity: 98%

## Ac-P-Cha-G˜Hphe-Cit-L-Ahxh-Ac
  purity (crude or final not stated): 100%

## Ac-PLG˜L-Cha-Ahxh-H
Whole synthesis
  purity (crude or final not stated): 100%

## 2-((1E)-2-{[5-(N-{(2S)-2-[(2S)-2-(2-{(2S)-2-[((2S)-1-Acetylpyrrolidin-2-yl)carbonylamino]-5-[(tert-butoxy)carbonylamino]-pentanoylamino}acetylamino)-4-phenylbutanoylamino]-4-methylpentanoylamino}-carbamoyl)(2-pyridyl)]amino}-2-azavinyl)benzenesulfonic Acid
Conjugation step
  conjugation yield: 68.0%
  final HPLC purity: 100% purity by HPLC

## Ac-P-Cit-G˜Hphe-LQ-Hynic
  final HPLC purity: 100%

## Ac-P-Cha-G˜Hphe-Cit-L-Ahxh-H
Whole synthesis
  purity (crude or final not stated): 100%

## H-γ-DGlu-PLG-LYT-Ahxh-Hynic
  final HPLC purity: 92%

## Ac-P-Cit-Cit˜LTA-Ahxh-Hynic
  final HPLC purity: 93%

## (2S)-N-{(1S)-1-[N-((1S)-1-{N-[6-(Acetylamino)hexanoylamino]carbamoyl}3-methylbutyl)carbamoyl]-2-(4-hydroxyphenyl)ethyl}-2-(2-{(2S)-2-[((2S)-1-acetylpyrrolidin-2-yl)carbonylamino]-4-methylpentanoylamino}acetylamino)hept-6-enamide
Late stage modification step
  step yield: 94%
  final HPLC purity: 100%

## Ac-PLG˜Cit-LA-Ahxh-H
Whole synthesis
  purity (crude or final not stated): 95%

## N-{(2S)-2-[(2S)-2-(2-{(2S)-2-[((2S)-1-Acetylpyrrolidin-2-yl)carbonylamino]-N-(4-aminobutyl)-4-methylpentanoylamino}acetylamino)-4-methylpentanoylamino]-4-methylpentanoylamino}-6-(acetylamino)hexanamide Trifluoroacetic Acid Salt
[1]
  final HPLC purity: 100%
  step yield: 83%

## Ac-PLG˜L-Cha-Ahxh-Hynic
  final HPLC purity: 99%

## Ac-PLG˜Ahp-YL-Ahxh-Ac
  purity (crude or final not stated): 100%

## Ac-P-NLeu-G˜LL-Ahxh-Ac
  purity (crude or final not stated): 100%

## H-NLys-PLG˜LYT-Ahxh-Hynic
  final HPLC purity: 90%

## Ac-P-NLeu-G˜LL-Ahxh-H
Whole synthesis
  purity (crude or final not stated): 98%

## Ac-PRG˜Hphe-Dab-A-Ahxh-Hynic
  final HPLC purity: 100%

## Ac-P-Cit-G˜Hphe-O(Boc)L-Ahxh-H
Whole synthesis
  purity (crude or final not stated): 90%

## Ac-Hpro-Cit-G˜Hphe-TA-Ahxh-Hynic
  final HPLC purity: 100%

## H-DArg-P-Cit-G˜cLeu-LA-Ahxh-Hynic
  final HPLC purity: 100%

## Ac-P-Cit-G˜Hphe-LA-Ahxh-Ac
  purity (crude or final not stated): 98%

## Ac-PLG[hPhe][Orn]LEE-{Hexamethylenediamine-X1} (SMILES CC(=O)N1CCC[C@H]1C(=O)N[C@@H](CC(C)C)C(=O)NCC(=O)N[C@@H](CCc1ccccc1)C(=O)N[C@@H](CCCN)C(=O)N[C@@H](CC(C)C)C(=O)N[C@@H](CCC(=O)O)C(=O)N[C@@H](CCC(=O)O)C(=O)NCCCCCCNC(=O)c1ccc(N/N=C/c2ccccc2S(=O)(=O)O)nc1)
Conjugation step
  conjugation yield: 56.0%
  final HPLC purity: 99.2% purity by HPLC

## NLys-PLG˜Hphe-YL-Ambh-Hynic
  final HPLC purity: 100%

## Ac-PLG˜Ahp-Y(t-Bu)L-Ahxh-H
Whole synthesis
  purity (crude or final not stated): 100%

## Ac-NGlu(O-t-Bu)-PO(Boc)G-Hphe-L-OH
Whole synthesis
  isolated yield: 37.1%
  final HPLC purity: 93.7% purity by HPLC

## Ac-P-Cit-G˜Abu-LA-Ahxh-Hynic
  final HPLC purity: 100%

## X1-[dF][dF][dF][Ahx]PLG[hPhe][Orn]LEE-OH (SMILES CC(C)C[C@H](NC(=O)[C@H](CCCN)NC(=O)[C@H](CCc1ccccc1)NC(=O)CNC(=O)[C@H](CC(C)C)NC(=O)[C@@H]1CCCN1C(=O)CCCCCNC(=O)[C@@H](Cc1ccccc1)NC(=O)[C@@H](Cc1ccccc1)NC(=O)[C@@H](Cc1ccccc1)NC(=O)c1ccc(N/N=C/c2ccccc2S(=O)(=O)O)nc1)C(=O)N[C@@H](CCC(=O)O)C(=O)N[C@@H](CCC(=O)O)C(=O)O)
Whole synthesis
  final HPLC purity: HPLC purity 100%
Whole synthesis, overall
  isolated yield: overall yield 1.4%

## Ac-P-Cit-G˜Hphe-Cha-A-Ahxh-Ac
  purity (crude or final not stated): 100%

## PEPTIDE1{[ac].P.L.G.[Hphe].Y.L.[Ambh].[HynCz]}$$$$V2.0
Late stage modification step
  step yield: 15%
  final HPLC purity: HPLC purity 100%

## Ac-NGlu(Ot-Bu)-PLG-Hphe-Y(t-Bu)-L-ONH4
Whole synthesis
  final HPLC purity: HPLC purity 100%
Whole synthesis, overall
  isolated yield: overall yield 30%

## Ac-PLG˜Pabu-Cit-L-Ahxh-H
Whole synthesis
  purity (crude or final not stated): 100%

## Ac-P-Cit-G˜Tle-LA-Ahxh-Hynic
  final HPLC purity: 100%

## PEPTIDE1{[ac].P.L.G.[Hphe].[Orn].L.[Ambh].[HynCz]}$$$$V2.0
Late stage modification step
  step yield: 60.0%
  final HPLC purity: 100% purity by HPLC

## Ac-NGlu(t-Bu)-PLG˜Hphe-YL-Ahxh-H
Whole synthesis
  purity (crude or final not stated): 100%

## Ac-NLys-PLG˜LL-Ahxh-Hynic
  final HPLC purity: 100%

## Ac-PLG˜Cit-LA-Ahxh-Ac
  purity (crude or final not stated): 100%

## Ac-P-Cit-G˜Aib-LA-Ahxh-Hynic
  final HPLC purity: 99%

## Ac-P-NMeArg-R˜LTA-Ambh-Hynic
  final HPLC purity: 100%

## Ac-P-Cit-G˜Nle-LA-Ahxh-Hynic
  final HPLC purity: 100%

## Ac-Inp-Cit-G˜Hphe-LA-Ahxh-Hynic
  final HPLC purity: 99%

## Ac-P-Cha-G˜LL-Ahxh-Ac
  purity (crude or final not stated): 100%

## Ac-P-NLys-R˜LTA-Ahxh-Hynic
  final HPLC purity: 99%

## X1-[dF][dF][Ahx]PLG[hPhe][Orn]LEE-OH (SMILES CC(C)C[C@H](NC(=O)[C@H](CCCN)NC(=O)[C@H](CCc1ccccc1)NC(=O)CNC(=O)[C@H](CC(C)C)NC(=O)[C@@H]1CCCN1C(=O)CCCCCNC(=O)[C@@H](Cc1ccccc1)NC(=O)[C@@H](Cc1ccccc1)NC(=O)c1ccc(N/N=C/c2ccccc2S(=O)(=O)O)nc1)C(=O)N[C@@H](CCC(=O)O)C(=O)N[C@@H](CCC(=O)O)C(=O)O)
Whole synthesis
  final HPLC purity: HPLC purity 100%
Whole synthesis, overall
  isolated yield: overall yield 4.4%

## N-((2S)-2-{(2S)-2-[2-((2S)-2-[((2S)-1-Acetylpyrrolidin-2-yl)carbonylamino]-N-{4-[(tert-butoxy)carbonylamino]butyl}-4-methylpentanoylamino)acetylamino]-4-methylpentanoylamino}-4-methylpentanoylamino)-6-aminohexanamide Trifluoroacetic Acid Salt
Late stage modification step
  step yield: 39%
  final HPLC purity: 100%

## Ac-P-Cit-G˜Hphe-LA-Ahxh-H
Whole synthesis
  purity (crude or final not stated): 90%

## Ac-P-DLeu-G˜LL-Ahxh-Hynic
  final HPLC purity: 100%

## Ac-PL-NLys(Boc)-LL-dLeu-Ahxh-H
Whole synthesis
  purity (crude or final not stated): 97%

## AC-P-Cit-G˜S(OBn)-LA-Ahxh-Hynic
  final HPLC purity: 100%

## Ac-PLG˜Hphe-Cit-L-Ahxh-Hynic
  final HPLC purity: 97%

## Ac-DAla-PRG˜Ile-LA-Ahxh-Hynic
  final HPLC purity: 100%

## Ac-POG˜Hphe-Smc-T-Ahxh-Hynic
  final HPLC purity: 100%

## Ac-P-Cit-Aib˜Hphe-LA-Ahxh-Hynic
  final HPLC purity: 99%

## Ac-P-Cit-G˜Hphe-L-Ahxh-Hynic
  final HPLC purity: 100%

## Ac-P-Cit-G˜Hphe-Cit-L-Ahxh-Hynic
  final HPLC purity: 98%

## Ac-Oic-LG˜LL-Ahxh-Ac
  purity (crude or final not stated): 100%

## Ac-NLys-PLG˜Hphe-RLA-Ahxh-Hynic
  final HPLC purity: 100%

## PEPTIDE1{[ac].P.L.G.[Hphe].Y.L.[Ahxh].[HynCz]}$$$$V2.0
Late stage modification step
  step yield: 29%
  final HPLC purity: HPLC purity, 100%

## Ac-P-Cit-G˜Chg-LA-Ahxh-Hynic
  final HPLC purity: 100%

## Ac-NGlu-PLG˜Hphe-YL-Ahxh-Ac
  purity (crude or final not stated): 100%

## 15: Ac-NGlu-POG˜Hphe-L-Hynic
Late stage modification step
  step yield: 66.7%
  final HPLC purity: 100% purity by HPLC
